The text below walks through data of paper PMC7371201.

For at least one entry, the source does not settle the construct or the ends of the probe.

The test system of this data set is NbGlk1(83-402) (Nicotiana benthamiana). The experiment in a line: fluorescence anisotropy. The note with it: DNA annealed in 150 mM NaCl, 15 mM Na citrate, binding buffer, recombinant protein.

As for “CGGATATCCACGGATATCCACGGATATCCACGGATATCCACGGATATCCC (double strand) [FA-5/FA-6 concatenated GGATATCC GLK site duplex]”, the binding result runs as follows: (with NbDBCP-BD (293-414), binding not altered) “binds”; (with Rx1(GST-1-144) and NbDBCP-BD (293-414), BD causes no further change) “binds”.
